# Hit rate of the full screen: of about 330,000 compounds, about 7,700 (2.3%) were called active. This list was built around the results that the source calls inconclusive (neither active nor inactive); the mix of calls is not that of the screen. Calls follow the shape of the dose curve; as a rule, active = well fitted inhibition curve with a large enough effect; inconclusive = small, poorly fitted or top-dose-only effect, or effect the other way; inactive = flat fitted curve, though single readings scatter. Potencies of inconclusive entries are doubtful fits and often do not repeat.
# Experiment: qHTS screen for small molecules that inhibit ELG1-dependent DNA repair in human embryonic kidney (HEK293T) cells expressing luciferase-tagged ELG1; also: nearly all actives have a fitted effect of over 55% in size
# Settings: HEK293T ELG1-luciferase reporter, luminescence, 16 h, DNA damage induced by 5-fluorouridine; activity change, negative = inhibition: at 46.1 µM (top of the series)
# Procedure, shortened: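 Step one: seed 2,000 cells per well. Step two: pin-transfer compound or DMSO alongside 5-fluorouridine. Step three: incubate 16 hr, 37 °C, 5% CO2. Step four: add ONE-Glo, wait 30 min, read luminescence.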
# % is scaled to controls: 0 for no effect and ±100 for the full control effect; potency is read from the fitted curve at half-maximal effect.
Compound,Potency,"activity change, negative = inhibition"
C=CCn1c(O)c(C(CC)=Nc2ccccc2NC(=O)CC)c(=O)[nH]c1=O,inactive,
CCCCn1c(N)c(-c2nc3ccccc3o2)c2c([N+](=O)[O-])nn(C)c(=O)c21,"inconclusive: 2.91 µM [inhibitor, full curve]",
COc1ccc(Cl)cc1NC(=O)CCc1nc(-c2ccccc2F)no1,"inconclusive: 29.1 µM [inhibitor, single point]",
Cc1ccc(SCc2cn3c(C)csc3n2)cc1,"inconclusive: 2.59 µM [activator, full curve]",
CCC(C)[C@H](NC(=O)Nc1ccccc1F)C(=O)O (some centres undefined),inactive,
O=C(CN1CCN(S(=O)(=O)c2ccc(F)cc2)CC1)Nc1ccc(F)cc1F,"inconclusive: 13 µM [activator, single point]",
Cc1ccccc1Nc1nc(N)nc(CSc2n[nH]c(N)n2)n1,inactive,
CCOC(=O)C1CCCN(S(=O)(=O)c2ccc(S(N)(=O)=O)cc2)C1 (centres undefined),"inconclusive: 4.61 µM [inhibitor, partial curve, poor fit]",
CCCCC1=CC2=C(c3ccco3)C(=O)C(C)(OC(=O)c3ccc(OC)cc3)C(=O)C2=CN1CC1CC1 (centres undefined),inactive,
CCOC(=O)c1nn(-c2cccc(Cl)c2)c2nc(Nc3ccccc3)cc(=O)n12,"inconclusive: 29.1 µM [inhibitor, single point]",
O=c1oc(/C=C/c2ccccc2)nc2ccccc12,"inconclusive: 23.1 µM [inhibitor, partial curve, poor fit]",
CNC(=O)c1csc(-c2ccncc2)n1,"inconclusive: 5.17 µM [activator, full curve, poor fit]",
Cc1ccc(C)c(NC(=O)C2CCCN(S(=O)(=O)c3c(C)noc3/C=C/N(C)C)C2)c1 (centres undefined),inactive,
O=C(Cn1nc(-c2ccccc2)ccc1=O)Nc1ccc(NC(=O)c2ccccn2)cc1,"inconclusive: 20.6 µM [activator, single point]",
CC1CCN(c2c(NCC3CCC(C(=O)NCCc4ccc(Cl)cc4)CC3)c(=O)c2=O)CC1 (centres undefined),"inconclusive: 18.3 µM [inhibitor, single point]",
CCCc1nnc(SCC(=O)Nc2nc(C)cs2)n1CCOC,"inconclusive: 20.6 µM [activator, partial curve]",
CCCCN(Cc1ccccc1)C(=O)C1CCN(Cc2sccc2C)CC1,"inconclusive: 14.6 µM [inhibitor, partial curve, poor fit]",
COc1ccc(-c2c(C)[nH]n3c(=O)c(Cc4ccccc4)c(C)nc23)cc1,"inconclusive: 20.6 µM [inhibitor, partial curve, poor fit]",
O=C(Cn1nnc(-c2ccc(CN3CCOCC3)cc2)n1)N(c1ccccc1)c1ccccc1,inactive,
Cc1ccnc(NC(=O)COc2ccc3oc4c(c3c2)CCCC4)c1,"inconclusive: 18.4 µM [activator, partial curve]",
CCC(C)(C)NC(=O)C(c1cccnc1)N(C(=O)c1csnn1)c1ccccc1 (centres undefined),"inconclusive: 1.16 µM [activator, full curve, poor fit]",
O=c1[nH]c(Nc2ccc3c(c2)OCCO3)nnc1Cc1ccccc1,inactive,
CN(C)S(=O)(=O)Oc1ccc(C(=O)Nc2cccc(C(F)(F)F)c2)cc1,active: 20.6 µM,

Compound,Potency,"activity change, negative = inhibition"
COc1cc(NC(=O)c2cccs2)c(C(=O)OCC(=O)NC(=O)NC(C)(C)C)cc1OC,inactive,
O=S(=O)(NC1=NCCCCC1)c1ccc(F)cc1,,inconclusive: 13.3% [activator]
O=c1c(Cl)cc(Cl)nn1-c1ccccc1,active: 23.1 µM,
Fc1ccccc1/C=N/Nc1nc2ccccc2o1,"inconclusive: 2.31 µM [activator, full curve]",
C/C(=N\O)c1ccc2c(c1)CC(C)O2 (centres undefined),"inconclusive: 8.2 µM [activator, partial curve]",
CC1Sc2ccc(S(=O)(=O)N3CCN(c4ccccc4)CC3)cc2NC1=O (centres undefined),inactive,
CC(C)C[C@@]12C(=O)N(c3cccc(Cl)c3)C(=O)N1[C@H](c1ccc(F)cc1)[C@@H]1C(=O)N(C3CCCCC3)C(=O)[C@@H]12,"inconclusive: 1.58 µM [activator, partial curve, poor fit]",
Cc1cc(-c2csc(NC(=O)c3ccc(S(=O)(=O)N(C)C)cc3)n2)c(C)n1-c1ccccc1,active: 9.2 µM,
Cc1ccccc1CSc1nnc(-c2ccccn2)n1C,"inconclusive: 16.4 µM [activator, partial curve]",
CCOC(=O)c1cnc2c(c(C)nn2C)c1Oc1ccc(Cl)cc1,"inconclusive: 23.1 µM [inhibitor, single point]",
O=c1c2c3c(sc2nc2sc(CN4CCOCC4)cn12)CCCC3,"inconclusive: 3.26 µM [activator, partial curve]",
CC(Oc1ccc(Br)cc1)c1nc2c3ccccc3nc(=S)n2[nH]1 (centres undefined),"inconclusive: 16.4 µM [inhibitor, partial curve]",
CCN1CCN(S(=O)(=O)c2ccc3c4c(cccc24)C(=O)N3CC)CC1,"inconclusive: 20.6 µM [activator, partial curve]",
Cc1cc(C(=O)Cn2nc(C(=O)O)c3ccccc3c2=O)c(C)n1CC(F)(F)F,"inconclusive: 7.3 µM [activator, partial curve]",
O=C(NCc1ccc(F)cc1)c1cccc2c1C(=O)c1ccc(N3CCC(Cc4ccccc4)CC3)cc1S2(=O)=O,"inconclusive: 2.59 µM [inhibitor, partial curve, poor fit]",
CSCCC(NC(=O)c1ccccc1Cl)C(=O)NCC(c1cccs1)N(C)C (centres undefined),inactive,
CC(C)c1ccc(C(=O)CSc2n[nH]c(-c3ccncc3)n2)cc1,inactive,
Cc1cccc(NC(=O)c2ccccc2NC(=O)c2ccccc2)n1,"inconclusive: 18.3 µM [inhibitor, single point]",
O=C(O)/C=C/C(=O)NNc1ncnc2ccccc12,"inconclusive: 13 µM [activator, partial curve, poor fit]",
Nc1nnc(SCC(=O)Nc2ccc3c(c2)OCCO3)s1,"inconclusive: 16.4 µM [activator, partial curve]",
O=C(OCC#CCSc1nnc(-c2cccc3ccccc23)o1)c1ccc2ccccc2c1,inactive,
O=C(Cn1nnc(-c2ccccc2F)n1)Nc1ccc2c(c1)OCO2,inactive,
CCOC(=O)C(C(=O)NCc1ccc(F)cc1)c1ncc(C(F)(F)F)cc1Cl (centres undefined),,inconclusive: 21.1% [activator]

Compound,Potency,"activity change, negative = inhibition"
COc1ccc(OCCC(=O)NCCN2CCOCC2)cc1,inactive,
CCCOC(=O)c1ccc(OC(=O)c2ccco2)cc1,inactive,
CCOC(=O)[C@H]1[C@H]2COc3ccc(Cl)cc3[C@@H]2N2C(=O)[C@@H](CO)NC(=O)[C@@]12C,"inconclusive: 11.6 µM [activator, partial curve, poor fit]",
CCOc1ccc(NC(=O)CN2CCN(CC(=O)Nc3ccc(Cl)c(C(F)(F)F)c3)CC2)cc1,"inconclusive: 16.4 µM [inhibitor, partial curve]",
CC1CCCCN1C(=O)CSc1nnc2ccccn12 (centres undefined),"inconclusive: 23.1 µM [activator, single point]",
CC(C)CNc1nc(Oc2ccc(=O)[nH]n2)nc(N2CCOCC2)n1,"inconclusive: 25.9 µM [inhibitor, single point]",
O=C(OCn1nnc2ccccc2c1=O)c1ccc(N2CCOCC2)c([N+](=O)[O-])c1,inactive,
C=CCN1N=C(/C=C/c2ccc(OC)cc2)CCC1=O,"inconclusive: 16.4 µM [activator, partial curve]",
CCCN1CCC(=O)N([C@H](CSc2ccc(C)cc2)CC(C)C)CC1,"inconclusive: 20.6 µM [activator, partial curve]",
CCc1ccc(-c2ccc(C(=O)C(F)(F)F)[nH]2)cc1,"inconclusive: 9.2 µM [activator, partial curve]",
Cc1ccc(S(=O)(=O)N(C)C)cc1NC(=O)c1cc(=O)c2ccccc2o1,inactive,
CCCCCCCOc1ccc(C(=O)Nc2cccnc2)cc1,"inconclusive: 35.5 µM [inhibitor, single point]",
Cc1ccc(CN(C(=O)CNC(=O)c2cccs2)C(C(=O)NCC2CCCO2)c2ccccc2)cc1 (centres undefined),active: 9.2 µM,
Cc1ccc(NC(=S)N2CCCCCC2)c(C)c1,"inconclusive: 20.6 µM [activator, single point]",
CC(=O)Nc1cccc(Nc2nc(-c3ccccc3F)nc3ccccc23)c1,active: 14.6 µM,
O=C(NCCCN1CCCCC1)c1ccc(CS(=O)c2ccc(Cl)cc2)o1 (centres undefined),"inconclusive: 18.3 µM [activator, single point]",
CCOC(=O)C1CCCN(C(=O)c2ccc3c(=O)n(CCOC)c(=S)[nH]c3c2)C1 (centres undefined),active: 8.2 µM,
CCn1c(CNC(=O)COc2ccc(C(C)C)cc2)nnc1SCC(=O)Nc1ccccc1F,"inconclusive: 20.6 µM [inhibitor, partial curve]",
COc1ccc(CNC(=O)CSc2nn3c(=O)c(C(C)(C)C)nnc3s2)cc1OC,inactive,
CCC1=[N+](CC(=O)c2ccc(C)cc2)CCn2c(C)ccc21,"inconclusive: 9.2 µM [activator, partial curve]",
COc1ccc(CC(=O)c2c(O)cc(O)cc2O)cc1OC,"inconclusive: 23.1 µM [activator, partial curve, poor fit]",
O=C(NC(=S)Nc1ccc(CN2CCOCC2)cc1)c1ccc([N+](=O)[O-])cc1Cl,"inconclusive: 29.1 µM [inhibitor, single point]",
CC(C1CC2CCC1C2)n1c(COc2ccccc2F)nnc1SCC(N)=O (centres undefined),inactive,

# Single values from the list:
# Potency, O=C(OCn1nnc2ccccc2c1=O)c1ccc(N2CCOCC2)c([N+](=O)[O-])c1 reads inactive
# Potency, CCCOC(=O)c1ccc(OC(=O)c2ccco2)cc1 reads inactive
# Potency, COc1ccc(CC(=O)c2c(O)cc(O)cc2O)cc1OC reads inconclusive: 23.1 µM [activator, partial curve, poor fit]
